Experimental findings from PubChem BioAssay AID445 (National Center for Advancing Translational Sciences (NCATS), 2006) are described below.

The assay in a line: IkB Signaling. To be noted: ABC-DLBCL IkBa-CBG/CBR dual luciferase ratio (green luciferase fused to IkBa over red control in OCI-Ly3 lymphoma cells), 4 h. In outline: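 In this assay, an IκBα–CBG68 fusion accumulates when IKK-driven degradation is blocked; native CBR normalizes for cell number. OCI-Ly3 cells were treated 4 h with compound and doxycycline, then green and red light read after Chroma-Glo addition.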
Where [1] appears, read: measured here: control luc red channel unless noted.
Where [2] appears, read: measured here: IkB-luc green channel.
Setting [3] is: measured here: control luc red channel.

Structures are written as SMILES. Some of the results follow. Further columns of the screen follow, without active or inactive calls. Most of these compounds were active or inconclusive in the main read-out, so they are no random draw. Words in brackets tell the shape of the fitted curve; partial curves, single points and poor fits give uncertain potencies.

Usually AC50 stands for the midpoint of the concentration-response curve, whichever way the signal moves. For `COc1ccc(-c2ccc(CCC(=O)O)n2CC(=O)Nc2cccc(C(F)(F)F)c2)cc1`, the AC50 under setting [1] is 20 µM [falling, single point].
Take `CCOc1ccc(S(=O)(=O)NCCc2sc3nc(-c4ccc(C)cc4)nn3c2C)cc1`: the half-maximal activity concentration (AC50) under setting [1] is 3.16 µM [rising, single point] [measured here: IkB-luc green channel].
On to `Cc1cc(C)cc(-n2ccn(Cc3ccc(F)cc3)c(=O)c2=O)c1`, for which, under setting [1], the AC50 was 7.94 µM [falling, partial curve].
On the same count and under the same terms, for `CCn1c(SCC(=O)Nc2cccc(OC)c2)nnc1-c1ccc(Cl)cc1` the value was 10 µM [falling, partial curve].
`Cc1cccc(C)c1Nc1c(-c2ccc(O)cc2)nc2sccn12`: the AC50 under setting [1] was 15.8 µM [falling, partial curve].
Take `O=c1c2sc3ccccc3c2n(Cc2cccc(C(F)(F)F)c2)c(=O)n1Cc1ccc(F)cc1`: the AC50 under setting [1] was 10 µM [rising, partial curve, poor fit].
For `COc1ccc(NC(=O)CC2C(=O)N(c3cccc(OC)c3)C(=O)N2Cc2ccc3c(c2)OCO3)cc1` (centres undefined), the AC50 under setting [1] was 25.1 µM [falling, single point].
The same measure, in the same setting: under `CCOc1ccc(N2C(=O)c3cccnc3C2Nc2ccc(F)cc2)cc1` (centres undefined) stands 2.51 µM [falling, full curve]; under `Cc1ccc(-c2cn(-c3ccc(Cl)cc3)c(S(=O)(=O)CC(=O)Nc3ccccc3)n2)cc1`, 6.31 µM [falling, full curve]; under `Cc1nnc2c3ccccc3nc(Nc3cccc(O)c3)n12`, 15.8 µM [falling, partial curve, poor fit].
With `CCCCOC(=O)c1ccc(Nc2nnc(-n3nc(C)cc3C)c3ccccc23)cc1`, under setting [1], the AC50 was 5.01 µM [falling, partial curve].
On to `O=C(NC1CC(=O)N(c2ccc(Cl)cc2)C1)c1ccc(S(=O)(=O)N2CCOCC2)cc1` (centres undefined), for which the AC50 is 3.98 µM [rising, single point] under setting [2] and 6.31 µM [rising, partial curve] under setting [3].
For `O=C(Nc1ccc2c(c1)OCO2)C1CCCN(S(=O)(=O)c2cccs2)C1` (centres undefined), the AC50 under setting [1] is 20 µM [falling, partial curve].
Same read-out and setting: for `COc1ccc(CCNc2oc(-c3ccccc3OC)nc2C#N)cc1` the value was 12.6 µM [falling, partial curve]; for `Cc1ccc(Cl)cc1NC(=O)C1CCN(c2nc3ccccc3n3cccc23)CC1`, 20 µM [falling, single point]; for `COc1cccc(-c2cc(C(=O)N3CCN(Cc4ccccc4)CC3)no2)c1`, 15.8 µM [falling, partial curve].
For the compound `COc1ccccc1-c1cc(C(=O)NC(C)c2ccccc2)no1` (centres undefined), the AC50 under setting [1] is 1.26 µM [falling, partial curve].
For `Cc1ccc(NC(=O)c2c(NC(=O)c3ccccc3)sc3c2CCC3)cc1`, the AC50 under setting [1] was 0.794 µM [falling, full curve].
Turning to `COc1ccc(-c2nc3nc(C)c(Cc4ccccc4)c(=O)n3[nH]2)cc1`, the AC50 under setting [1] is 2.51 µM [falling, full curve].
For the compound `N#CC(C(=O)C1CCCCC1)c1nc2ccccc2[nH]1` (centres undefined), the concentration at half-maximal activity (AC50) under setting [1] is 12.6 µM [falling, single point].
Still for that read-out and setting: under `O=C(Nc1ccc2c(c1)nc1n2CCN(Cc2ccccc2)C1)c1cccs1` stands 12.6 µM [falling, partial curve]; under `O=C1CN(C(=O)c2ccc(Br)o2)C(c2ccc(F)cc2)c2cc(Cl)ccc2N1` (centres undefined), 10 µM [falling, partial curve]; under `CC(C)Cn1c(=O)c2sccc2n2c(CCCC(=O)NC3CCCCC3)nnc12`, 39.8 µM [falling, single point].
As to `CCN(CC)CCNC(=O)c1ccc(-n2c(-c3ccccc3)cc3c2CCCC3)cc1`, the AC50 under setting [1] is 31.6 µM [falling, partial curve].
As to `COc1cccc(CNC(=O)CCCn2nc(C)c3c(C)n(-c4ccc(C)cc4)nc3c2=O)c1OC`, under setting [1], the AC50 is 15.8 µM [falling, partial curve].
Take `Cc1cc(C)cc(NC(=O)C2CCN(S(=O)(=O)c3cccc(-c4noc(C)n4)c3)CC2)c1`: the AC50 under setting [1] is 39.8 µM [falling, single point].
Still for that read-out and setting: for `CC1=Nc2cc(C(=O)NC(C)C)ccc2Sc2ccc(C)cc21` the value was 39.8 µM [falling, single point].
Regarding `Fc1ccc(Br)cc1C1C=C(c2ccc(Br)cc2)Nc2nnnn21` (centres undefined), the AC50 under setting [1] was 0.0158 µM [falling, full curve, poor fit].
Still for that read-out and setting: under `CCc1cccc(N2C(=O)CS(=O)(=O)C23C(=O)N(Cc2ccccc2)c2ccc(C)cc23)c1` (centres undefined) stands 15.8 µM [falling, partial curve]; under `CSc1ccc(CNC(=O)c2sc3ncnc(N(C)C4CCCCC4)c3c2C)cc1`, 25.1 µM [falling, single point].
On the same count and under the same terms, for `CCOc1ccc(CN2C(=O)C(=O)c3cccc(C)c32)cc1OC` the value was 0.398 µM [rising, full curve].
The same measure, in the same setting: for `Cc1c(C(=O)Nc2ccc(F)cc2)oc2ccc(S(=O)(=O)N3CCCCCC3)cc12` the value was 10 µM [falling, partial curve]; for `Cc1cc(C(=O)Nc2nnc(C3CCCCC3)s2)no1`, 10 µM [falling, partial curve].
As to `CN(c1ccccc1)S(=O)(=O)c1cccc(C(=O)N2CCN(c3ccccn3)CC2)c1`, under setting [1], the AC50 is 25.1 µM [falling, partial curve].
For `O=C(CSc1nnc(COc2ccc(F)cc2)o1)N1c2ccccc2CCc2ccccc21`, under setting [1], the half-maximal activity concentration (AC50) was 3.98 µM [falling, full curve, poor fit].
As for `Cc1cc(C)c(NC(=O)C2CCN(C(=O)N3CCOc4ccccc43)CC2)c(C)c1`, the concentration at half-maximal activity (AC50) under setting [1] was 12.6 µM [falling, partial curve].
With `COc1cc2c(cc1NC(=O)COc1ccc(Br)cc1)oc1ccccc12`, the AC50 under setting [1] is 39.8 µM [falling, single point].
As for `COc1ccc(-c2cc(C(F)(F)F)n3ncc(-c4ccccc4)c3n2)cc1`, under setting [1], the AC50 is 20 µM [falling, single point].
On to `O=C(Nc1ccc(Cl)cc1)N1CCC(c2nc(-c3cccs3)no2)CC1`, for which the AC50 under setting [2] was 39.8 µM [falling, single point] and the AC50 under setting [3] was 25.1 µM [falling, single point].
On to `CCN(CC)c1ccc(NC(=O)c2cc(OC)cc(OC)c2)c(C)c1`, for which the AC50 under setting [1] is 3.98 µM [falling, partial curve].
Regarding `CCOCCCn1c(SCC(=O)NCc2ccccc2)nc2c(sc3ccccc32)c1=O`, under setting [1], the AC50 is 10 µM [rising, partial curve].
As for `CCCCOc1ccccc1Cn1c(=O)sc2ccccc21`, under setting [1], the AC50 is 39.8 µM [falling, single point].
As for `CCOc1ccc(C(=O)Nc2cccc(NC(=O)c3ccc(Cl)cc3Cl)c2)cc1`, the half-maximal activity concentration (AC50) under setting [1] was 5.01 µM [falling, partial curve].
Take `CSc1ncc(Cl)c(C(=O)C(C#N)c2nc3c(C)cc(C)cc3c(=O)[nH]2)n1` (centres undefined): the AC50 under setting [1] was 15.8 µM [falling, partial curve].
Still for that read-out and setting: under `Cn1c(SCC(=O)Nc2nc3ccccc3s2)ncc(C(=O)Nc2ccc(Cl)cc2)c1=O` stands 10 µM [falling, partial curve].
As to `COc1cccc(NC(=O)Cn2nnc(C(=O)NCc3ccc4c(c3)OCO4)c2N)c1`, under setting [1], the AC50 was 25.1 µM [falling, single point].
`Cc1cc(C)c(NC(=O)CSc2nc(=O)n(Cc3cccnc3)c3c2CCC3)c(C)c1`: the AC50 under setting [1] is 1.58 µM [rising, full curve, poor fit].
Turning to `Cc1ccc(S(=O)(=O)CC(=O)Nc2nc3c(C)cccc3s2)cc1`, under setting [1], the AC50 was 25.1 µM [falling, partial curve].
Regarding `Cc1ccc(N2CCN(Cc3nnc(-c4ccccc4F)o3)CC2)c(C)c1`, the AC50 under setting [1] was 25.1 µM [falling, single point].
Consider `CSc1ccc(/C=C/c2nc3ccccc3n2S(=O)(=O)c2ccc(Br)cc2)cc1`, for which the AC50 under setting [1] was 0.0316 µM [falling, full curve].
Take `COc1cccc(NC(=O)/C(C#N)=C/c2c(C)n(Cc3ccccc3)c3ccccc23)c1`: the concentration at half-maximal activity (AC50) under setting [1] is 3.16 µM [falling, full curve].
Regarding `CCOc1ccc(NC(=O)CCc2c(C)nc3nc(-c4cc(OC)cc(OC)c4)nn3c2C)cc1`, under setting [1], the AC50 is 15.8 µM [falling, single point].
For the compound `CCOC(=O)c1c(C)[nH]c(C)c1S(=O)(=O)N1CCCC(C(=O)Nc2cccc(CC)c2)C1` (centres undefined), the half-maximal activity concentration (AC50) under setting [1] was 10 µM [falling, partial curve, poor fit].
With `CC(=O)N1CCc2cc(Br)cc(S(=O)(=O)NCCc3cccc(C)c3)c21`, the half-maximal activity concentration (AC50) under setting [1] is 2 µM [falling, partial curve].
As to `Fc1ccc(C(NCCc2ccc(Cl)cc2)c2nnc(-c3ccccc3Cl)o2)cc1` (centres undefined), the AC50 under setting [1] was 20 µM [falling, partial curve].
`COc1cc(OC)c(NC(=O)CCc2nc(-c3ccc(C)cc3)no2)cc1Cl`: the AC50 under setting [1] is 7.94 µM [falling, partial curve].
Consider `CC(C)c1ccc(NC(=O)Cc2ccc(NC(=O)N3CCCCc4ccccc43)cc2)cc1`, for which the concentration at half-maximal activity (AC50) under setting [1] is 25.1 µM [falling, partial curve].
`CCC1CN(C(=O)NCc2ccc(F)cc2)c2cc(Cl)ccc2O1` (centres undefined): under setting [1], the AC50 was 10 µM [falling, partial curve].
As for `CCOc1cccc(CNC(=O)c2ccc(N3CCCC3)c(NC(=O)Nc3ccccc3CC)c2)c1`, the AC50 under setting [1] was 15.8 µM [falling, partial curve].
On the same count and under the same terms, under `Cc1c(C(=O)NCc2cccnc2)oc2ccc(S(=O)(=O)N3CCCCCC3)cc12` stands 15.8 µM [falling, partial curve]; under `Nc1nc(Nc2cccc(Cl)c2)sc1C(=O)c1ccc(F)cc1`, 20 µM [falling, single point]; under `COc1ccc(NC(=O)c2cccn2-c2nnc(N3CCCCC3)s2)c(OC)c1`, 0.0794 µM [rising, full curve, poor fit].
